# Reference: the supplement of paper PMC8728848
# This is one part of the list.
# How the values were obtained:
# Assay in all cases: glycan array binding signal (z-score within array); higher = stronger binding
# Settings in all cases: glycan notation: IUPAC condensed, linker removed
# [1] = target: Gal(b1-4)GlcNAc(b1-6)GalNAc
# In short: (§1)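 Glycan array data were curated from 3228 arrays in the Consortium for Functional Glycomics database and kept only where the protein sequence was available. Glycan names were converted to IUPAC-condensed notation, and columns mapping to the same glycan were averaged. The binding signal is a within-array Z-score, averaged across arrays of the same protein sequence at different concentrations or buffers and across linkers. Negative Z-scores can be read as non-binding.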
# [2] = target: Gal(b1-4)GlcNAc(b1-6)[Gal(b1-3)]GalNAc
# In short: as §1
# [3] = target: Gal3S(b1-3)GalNAc
# In short: as §1
# [4] = target: Gal3S(b1-3)GlcNAc
# In short: as §1
# [5] = target: Gal3S(b1-3)[Fuc(a1-4)]GlcNAc
# In short: as §1
# [6] = target: Gal3S(b1-4)Glc
# In short: as §1
# [7] = target: Gal3S(b1-4)Glc6S
# In short: as §1
# [8] = target: Gal3S(b1-4)GlcNAc
# In short: as §1
# [9] = target: Gal3S(b1-4)GlcNAc6S
# In short: as §1
# [10] = target: Gal3S(b1-4)[Fuc(a1-3)]Glc
# In short: as §1
# [11] = target: Gal3S6S(b1-4)GlcNAc
# In short: as §1
# [12] = target: Gal3S6S(b1-4)GlcNAc6S
# In short: as §1
# [13] = target: Gal4S(b1-4)GlcNAc
# In short: as §1
# [14] = target: Gal4S6S(b1-4)GlcNAc
# In short: as §1
# [15] = target: Gal6S(b1-4)Glc
# In short: as §1
# [16] = target: Gal6S(b1-4)Glc6S
# In short: as §1
# [17] = target: Gal6S(b1-4)GlcNAc
# In short: as §1
# [18] = target: GalNAc(a1-3)Gal
# In short: as §1
# [19] = target: GalNAc(a1-3)GalNAc
# In short: as §1
# [20] = target: GalNAc(b1-3)Gal(a1-4)Gal(b1-4)GlcNAc
# In short: as §1
# [21] = target: GalNAc(b1-3)GalNAc
# In short: as §1
# [22] = target: GalNAc(b1-4)GlcNAc
# In short: as §1
# [23] = target: Glc(a1-4)Glc
# In short: as §1
# [24] = target: Glc(a1-6)Glc(a1-6)Glc
# In short: as §1
# [25] = target: Glc(b1-4)Glc
# In short: as §1
# [26] = target: Glc(b1-6)Glc
# In short: as §1
# [27] = target: GlcA(b1-3)Gal
# In short: as §1
# [28] = target: GlcA(b1-6)Gal
# In short: as §1
# [29] = target: GlcNAc(a1-3)Gal(b1-4)GlcNAc
# In short: as §1
# [30] = target: GlcNAc(a1-6)Gal(b1-4)GlcNAc
# In short: as §1
# [31] = target: GlcNAc(b1-2)Gal(b1-3)GalNAc
# In short: as §1
# [32] = target: GlcNAc(b1-2)Man(a1-3)[GlcNAc(b1-2)Man(a1-6)]Man(b1-4)GlcNAc(b1-4)GlcNAc
# In short: as §1
# [33] = target: GlcNAc(b1-3)Gal
# In short: as §1
# [34] = target: GlcNAc(b1-3)Gal(b1-3)GalNAc
# In short: as §1
# [35] = target: GlcNAc(b1-3)Gal(b1-4)Glc
# In short: as §1
# [36] = target: GlcNAc(b1-3)Gal(b1-4)GlcNAc
# In short: as §1
# [37] = target: GlcNAc(b1-3)Gal(b1-4)GlcNAc(b1-3)Gal(b1-4)GlcNAc
# In short: as §1
# [38] = target: GlcNAc(b1-3)GalNAc
# In short: as §1
# [39] = target: GlcNAc(b1-3)[GlcNAc(b1-4)][GlcNAc(b1-6)]GlcNAc
# In short: as §1
# [40] = target: GlcNAc(b1-3)[GlcNAc(b1-6)]Gal(b1-4)GlcNAc
# In short: as §1
# [41] = target: GlcNAc(b1-3)[GlcNAc(b1-6)]GalNAc
# In short: as §1
# [42] = target: GlcNAc(b1-4)Gal(b1-4)GlcNAc
# In short: as §1
# [43] = target: GlcNAc(b1-4)GlcNAc(b1-4)GlcNAc
# In short: as §1
# [44] = target: GlcNAc(b1-4)GlcNAc(b1-4)GlcNAc(b1-4)GlcNAc(b1-4)GlcNAc
# In short: as §1
# [45] = target: GlcNAc(b1-4)GlcNAc(b1-4)GlcNAc(b1-4)GlcNAc(b1-4)GlcNAc(b1-4)GlcNAc
# In short: as §1
# [46] = target: GlcNAc(b1-4)[GlcNAc(b1-6)]GalNAc
# In short: as §1
# [47] = target: GlcNAc(b1-6)Gal(b1-4)GlcNAc
# In short: as §1
# [48] = target: GlcNAc(b1-6)GalNAc
# In short: as §1
# [49] = target: Kdn(a2-3)Gal(b1-3)GlcNAc
# In short: as §1
# [50] = target: Kdn(a2-3)Gal(b1-4)GlcNAc
# In short: as §1
# [51] = target: Man(a1-2)Man(a1-2)Man(a1-3)Man
# In short: as §1
# [52] = target: Man(a1-2)Man(a1-2)Man(a1-6)[Man(a1-3)]Man
# In short: as §1
# [53] = target: Man(a1-2)Man(a1-3)Man
# In short: as §1
# [54] = target: Man(a1-2)Man(a1-3)[Man(a1-2)Man(a1-6)]Man
# In short: as §1
# [55] = target: Man(a1-2)Man(a1-3)[Man(a1-2)Man(a1-6)]Man(a1-6)[Man(a1-2)Man(a1-2)Man(a1-3)]Man(b1-4)GlcNAc(b1-4)GlcNAc
# In short: as §1
# [56] = target: Man(a1-2)Man(a1-3)[Man(a1-2)Man(a1-6)]Man(a1-6)[Man(a1-3)[Man(a1-6)]Man(a1-6)]Man(b1-4)GlcNAc(b1-4)GlcNAc
# In short: as §1
# [57] = target: Man(a1-2)Man(a1-3)[Man(a1-6)]Man(a1-6)[Man(a1-2)Man(a1-3)]Man(b1-4)GlcNAc(b1-4)GlcNAc
# In short: as §1
# [58] = target: Man(a1-2)Man(a1-6)[Man(a1-3)]Man(a1-6)[Man(a1-2)Man(a1-2)Man(a1-3)]Man(b1-4)GlcNAc(b1-4)GlcNAc
# In short: as §1
# [59] = target: Man(a1-3)[Man(a1-6)]Man
# In short: as §1
# [60] = target: Man(a1-3)[Man(a1-6)]Man(a1-6)[Man(a1-3)]Man(b1-4)GlcNAc(b1-4)GlcNAc
# In short: as §1
binder,measurement,setting,value
SrpA (Streptococcus sanguis) (protein) SSKSESTVNSQSASSETNRSSTNNGSTSSSSETARVRKRRATDTTPPTITVPSDIIAYRGEEFEFYFEITDDSGQVKNIELSTFGKPLGLNWLEYSEDNFNVPGNATSDNPLRVRVHGTVPLNEPIPADKNRAQFTRTIRAWDAAGNVSSNITFVIKYRAQTDKYNPADPTITYVDRLSSLSPSEKNAVEAAVRAANPQIPAAARITVSANGTVTITYPDSSTDTITANRVVKDLASSRSALT,glycan array binding signal (z-score),[1],-0.04
same,glycan array binding signal (z-score),[2],-0.254
same,glycan array binding signal (z-score),[3],1.2
same,glycan array binding signal (z-score),[4],0.646
same,glycan array binding signal (z-score),[5],0.569
same,glycan array binding signal (z-score),[6],-0.222
same,glycan array binding signal (z-score),[7],0.256
same,glycan array binding signal (z-score),[8],-0.058
same,glycan array binding signal (z-score),[9],0.217
same,glycan array binding signal (z-score),[10],0.226
same,glycan array binding signal (z-score),[11],0.125
same,glycan array binding signal (z-score),[12],0.588
same,glycan array binding signal (z-score),[13],1.07
same,glycan array binding signal (z-score),[14],0.56
same,glycan array binding signal (z-score),[15],-0.446
same,glycan array binding signal (z-score),[16],-0.622
same,glycan array binding signal (z-score),[17],0.624
same,glycan array binding signal (z-score),[18],1.03
same,glycan array binding signal (z-score),[19],0.348
same,glycan array binding signal (z-score),[20],-0.265
same,glycan array binding signal (z-score),[21],0.055
same,glycan array binding signal (z-score),[22],0.14
same,glycan array binding signal (z-score),[23],-0.28
same,glycan array binding signal (z-score),[24],0.658
same,glycan array binding signal (z-score),[25],-0.813
same,glycan array binding signal (z-score),[26],0.318
same,glycan array binding signal (z-score),[27],-0.476
same,glycan array binding signal (z-score),[28],-0.736
same,glycan array binding signal (z-score),[29],-0.757
same,glycan array binding signal (z-score),[30],-0.435
same,glycan array binding signal (z-score),[31],-0.723
same,glycan array binding signal (z-score),[32],-0.43
same,glycan array binding signal (z-score),[33],-0.658
same,glycan array binding signal (z-score),[34],1.6
same,glycan array binding signal (z-score),[35],-0.622
same,glycan array binding signal (z-score),[36],-0.543
same,glycan array binding signal (z-score),[37],-0.324
same,glycan array binding signal (z-score),[38],-0.713
same,glycan array binding signal (z-score),[39],-0.657
same,glycan array binding signal (z-score),[40],-0.387
same,glycan array binding signal (z-score),[41],-0.923
same,glycan array binding signal (z-score),[42],-0.791
same,glycan array binding signal (z-score),[43],-0.636
same,glycan array binding signal (z-score),[44],-0.834
same,glycan array binding signal (z-score),[45],-0.67
same,glycan array binding signal (z-score),[46],-0.162
same,glycan array binding signal (z-score),[47],-0.705
same,glycan array binding signal (z-score),[48],-0.323
same,glycan array binding signal (z-score),[49],0.272
same,glycan array binding signal (z-score),[50],-0.655
same,glycan array binding signal (z-score),[51],-0.723
same,glycan array binding signal (z-score),[52],-0.026
same,glycan array binding signal (z-score),[53],0.288
same,glycan array binding signal (z-score),[54],-0.848
same,glycan array binding signal (z-score),[55],-0.332
same,glycan array binding signal (z-score),[56],-0.687
same,glycan array binding signal (z-score),[57],0.797
same,glycan array binding signal (z-score),[58],-1.05
same,glycan array binding signal (z-score),[59],-0.094
same,glycan array binding signal (z-score),[60],1.57

# Random excerpt: two entries already listed
binder,measurement,setting,value
SrpA (Streptococcus sanguis) (protein) SSKSESTVNSQSASSETNRSSTNNGSTSSSSETARVRKRRATDTTPPTITVPSDIIAYRGEEFEFYFEITDDSGQVKNIELSTFGKPLGLNWLEYSEDNFNVPGNATSDNPLRVRVHGTVPLNEPIPADKNRAQFTRTIRAWDAAGNVSSNITFVIKYRAQTDKYNPADPTITYVDRLSSLSPSEKNAVEAAVRAANPQIPAAARITVSANGTVTITYPDSSTDTITANRVVKDLASSRSALT,glycan array binding signal (z-score),[44],-0.834
same,glycan array binding signal (z-score),[60],1.57
